In patent US20200131249A1, “NOVEL PROTEINS AND USE THEREOF” (EVOLVERITAS KFT., priority 2017, published 2020) one finds IC50/KI data, which are given here for four substances.

This data set has as its system lectin pathway. Briefly: WIELISA lectin pathway activation in diluted normal human serum. The class given is biochemical. The conditions noted are these: lectin pathway IC50 in diluted human serum over KI on human MASP-2.
As to “SGMI-2 (GSGEVTCEPGTTFKDKCNTCRCGSDGKSAVCTKLWCNQ; Synthetic protein of insect origin) [reference compound]”, the IC50/KI was 29.
With “SEQ ID NO: 14: TFPI-D2 variant protein with inhibitor loop PCRAVKR (SEQ ID NO: 4) (KPDFCFLEEDPGPCRAVKRRYFYNNQTKQCERFKYGGCLGNMNNFETLEECKNICEDG; Modified Kunitz domain protein)” the figure was 11.4.
With “SEQ ID NO: 11: TFPI-D2 variant protein with inhibitor loop FCRAVKR (SEQ ID NO: 1) (KPDFCFLEEDPGFCRAVKRRYFYNNQTKQCERFKYGGCLGNMNNFETLEECKNICEDG; Modified Kunitz domain protein)” the figure was 17.5.
With “SEQ ID NO: 17: TFPI-D2 variant protein with inhibitor loop VCRAVKR (SEQ ID NO: 7) (KPDFCFLEEDPGVCRAVKRRYFYNNQTKQCERFKYGGCLGNMNNFETLEECKNICEDG; Modified Kunitz domain protein)” the figure was 10.4.
